Reference: PubChem BioAssay (EPA / NIEHS)
Inconclusive means that the source gave no clear call. Such entries were picked first, then a sample of the others. Potencies beside an inconclusive call are fits to weak or partial responses and may not hold up. Calls of active or inactive are those of the source. Rule for the calls: active = hit-call score of the fitted dose curve at least 0.9, where 1 is the maximum; inconclusive = response in the unintended direction; inactive = score below 0.9.

Protein sequences, listed by entry. Tags and fused reporters are not part of them. Lines headed by an entry give the natural chain unless they say otherwise; changes in a name come on top.
UniProt P41144: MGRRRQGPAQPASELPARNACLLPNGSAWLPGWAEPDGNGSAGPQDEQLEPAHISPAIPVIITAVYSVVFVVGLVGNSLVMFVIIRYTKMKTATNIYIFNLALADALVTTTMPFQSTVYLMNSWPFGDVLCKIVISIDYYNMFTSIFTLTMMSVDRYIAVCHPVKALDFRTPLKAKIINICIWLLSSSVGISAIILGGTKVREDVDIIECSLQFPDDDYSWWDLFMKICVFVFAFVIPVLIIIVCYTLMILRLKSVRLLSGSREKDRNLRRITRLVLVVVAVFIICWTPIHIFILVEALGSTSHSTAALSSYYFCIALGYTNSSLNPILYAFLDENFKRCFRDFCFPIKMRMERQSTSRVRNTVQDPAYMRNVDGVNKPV

biological target: guinea pig Opioid, Kappa 1 Receptor (OpiateK), OPRK1 (gene 100135587) (UniProt P41144); assay: NVS_GPCR_gOpiateK: NovaScreen (NVS) G Protein-Coupled Receptor Assay for guinea pig Opioid, Kappa 1 Receptor (OpiateK) (AID 2283252)
Procedure: NVS_GPCR_gOpiateK is a biochemical, single-readout assay that uses extracted gene-proteins from Guinea pig cerebellar membranes in a tissue-based cell-free assay. Measurements were taken 2 hours after chemical dosing in a 48-well plate.NVS_GPCR_gOpiateK is one of one assay component(s) measured or calculated from the NVS_GPCR_gOpiateK assay. It is designed to make measurements of radioligand binding, a form of binding reporter, as detected with scintillation counting signals by Filter-based radiodetection technology.Data from the assay component NVS_GPCR_gOpiateK was analyzed into 1 assay endpoint. This assay endpoint, NVS_GPCR_gOpiateK, was analyzed in the positive analysis fitting direction relative to DMSO as the negative control and baseline of activity. Using a type of binding reporter, loss-of-signal activity can be used to understand changes in the binding as they relate to the gene Oprk1. Furthermore, this assay endpoint can be referred to as a primary readout, because the performed assay has only produced 1 assay endpoint. To generalize the intended target to other relatable targets, this assay endpoint is annotated to the gpcr intended target family, where the subfamily is rhodopsin-like receptor.
Binding assays used specific radioligands (tritiated, iodinated) with non-radioactive competitive displacement ligands in agonist or antagonist protocols (as indicated) and various reference compounds and inhibitors to titrate specific binding to receptors and transporters. Most enzyme assays (CYPs, kinases, phosphatases, proteases, HDACs) used recombinant protein and specific substrates (fluorescence mostly, some colorimetric and radioactive) and inhibitors, followed by a biochemical separation of substrate and product. All assays for the biochemical HTS were initially run in duplicate at a single concentration (10 uM for CYP450 assays and 25 uM for all others). […] Each assay was run with positive and negative controls, and concurrent controls on every plate. The follow-up (secondary) screen tested active chemical-pairs in concentration series, as well as a few additional assays not tested in the primary screen, some selected negative inactives, and several cases re-run in the concentration series for confirmatory purposes.

SMILES | outcome | AC50
CN1CCN(Cc2cc(-c3ccc4[nH]c(=O)oc4c3)co2)[C@@H](c2ccc(F)cc2)C1 | inactive | –
O=C(O)Cc1cc(I)c(Oc2cc(I)c(O)c(I)c2)c(I)c1 | – | inconclusive: 0.524 µM
C#C[C@]1(O)CC[C@H]2[C@@H]3CCC4=CC(=O)CC[C@@H]4[C@H]3CC[C@@]21C | inactive | –
O=C(O)c1ccccc1C(c1ccc(O)cc1)c1ccc(O)cc1 | – | inconclusive: 25 µM
C=CC(C)(CCC=C(C)C)OC(C)=O (stereo not drawn) | – | active: 46.5 µM
O=C(O)CN(CC(=O)O)CC(=O)O | – | inconclusive: 0.684 µM
Nc1ccc(Nc2ccccc2)cc1 | – | active: 20.6 µM
COc1ccc2cc(S(=O)(=O)N[C@H](CC(=O)N[C@H](Cc3ccc(CN4[C@H](C)CCC[C@@H]4C)cc3)C(=O)N(C)C(C)C)c3ccc4c(c3)OCO4)ccc2c1 | – | active: 0.548 µM
Clc1cc(Cl)c2c(c1)N=C1CCCCCN1C2 | – | active: 10.5 µM
COc1ccc(OC(F)(F)F)cc1CN[C@H]1CCCN[C@H]1c1ccccc1 | – | active: 25 µM
CSc1ccc(Oc2ccc(S(N)(=O)=O)cc2CN(C)C)cc1C | – | active: 13.5 µM
N[C@@H](Cc1cc(I)c(Oc2ccc(O)c(I)c2)c(I)c1)C(=O)O | – | inconclusive: 20 µM
CCCCCCCCCCCCCCCCO | – | inconclusive: 0.0743 µM

By substructure: those above with sulfur.
SMILES | outcome | AC50
COc1ccc2cc(S(=O)(=O)N[C@H](CC(=O)N[C@H](Cc3ccc(CN4[C@H](C)CCC[C@@H]4C)cc3)C(=O)N(C)C(C)C)c3ccc4c(c3)OCO4)ccc2c1 | – | active: 0.548 µM
CSc1ccc(Oc2ccc(S(N)(=O)=O)cc2CN(C)C)cc1C | – | active: 13.5 µM
